Source: patent publication US12364703B2, “Homogeneous ophthalmic composition” (priority 2015, dated 2025)

Assay: LCMS and standard curve analysis of the concentration of each active ingredient in solution
Assay type: physicochemical
Conditions: three samples of solutions containing the three active ingredients; LCMS, standard curve
Method: The solutions were analyzed by LCMS and standard curve analysis to confirm the identity and quantity of each active ingredient and are summarized below. Separate stock solutions of moxifloxacin HCI, dexamethasone, and sodium bromfenac were used as standards. Three different samples of solutions containing the three active ingredients, i.e., moxifloxacin HCI, dexamethasone, and sodium bromfenac were analyzed for the concentration of moxifloxacin in solution, the concentration of dexamethasone in solution, and the concentration of sodium bromfenac in solution.

C[C@@H]1C[C@H]2[C@@H]3CCC4=CC(=O)C=C[C@]4(C)[C@@]3(F)[C@@H](O)C[C@]2(C)[C@@]1(O)C(=O)COP(=O)(O)O [dexamethasone sodium phosphate]
Concentration in Solution: 1102 µg/mL
